Measurements reported in the supplement of paper PMC4604168 (melanoma cell lines).
The other results are listed elsewhere or left out. Repeats are few or missing, and single values can be far off.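 The apoptosis fraction was the count of cleaved-PARP antibody-stained nuclei relative to all DNA-stained nuclei, imaged in 1,536-well plates. Screening doses were set so most cells survived, and baseline and induced cleaved-PARP levels vary greatly across cell lines.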

The compounds below were run on COLO792 (assay: cleaved PARP positive nuclei fraction relative to DMSO control; melanoma cells; higher = more apoptosis). Conditions: library dose: low library concentration; 72 h.

SMILES | cleaved PARP positive nuclei fraction [%]
CS(=O)(=O)c1ccc(C(=O)Nc2ccc(Cl)c(-c3ccccn3)c2)c(Cl)c1 [vismodegib] + OCc1c[nH]c2ccccc12 [Indole-3-carbinol] (first compound 1 µM, partner dose 0.8 µM) | 86.7
COc1ccc(C2=N[C@@H](c3ccc(Cl)cc3)[C@@H](c3ccc(Cl)cc3)N2C(=O)N2CCNC(=O)C2)c(OC(C)C)c1 [Nutlin-3] + NC1(c2ccc(-c3nc4ccn5c(=O)[nH]nc5c4cc3-c3ccccc3)cc2)CCC1 [MK2206] (first compound 0.1 µM, partner dose 0.4 µM) | 158
COc1ccc(C2=N[C@@H](c3ccc(Cl)cc3)[C@@H](c3ccc(Cl)cc3)N2C(=O)N2CCNC(=O)C2)c(OC(C)C)c1 [Nutlin-3] + Clc1ccc(Nc2nnc(Cc3ccncc3)c3ccccc23)cc1 [vatalanib] (first compound 0.1 µM, partner dose 2 µM) | 103
Cn1sc(=O)n(Cc2ccccc2)c1=O + CN(c1ncccc1CNc1nc(Nc2ccc3c(c2)CC(=O)N3)ncc1C(F)(F)F)S(C)(=O)=O [PF562271] (first compound 0.4 µM, partner dose 0.08 µM) | 104
Cn1cnc2c(F)c(Nc3ccc(Br)cc3Cl)c(C(=O)NOCCO)cc21 [selumetinib] + CNC(=O)c1cc(Oc2ccc(NC(=O)Nc3ccc(Cl)c(C(F)(F)F)c3)cc2)ccn1 [sorafenib] (first compound 0.015 µM, partner dose 0.4 µM) | 81.8
NC1(c2ccc(-c3nc4ccn5c(=O)[nH]nc5c4cc3-c3ccccc3)cc2)CCC1 + CCCS(=O)(=O)Nc1ccc(F)c(C(=O)c2c[nH]c3ncc(Cl)cc23)c1F [PLX4720] (first compound 0.4 µM, partner dose 0.08 µM) | 140
NC(=O)c1ccc(N(C(N)=O)c2c(F)cccc2F)nc1-c1ccc(F)cc1F + C#Cc1cccc(Nc2ncnc3cc(OCCOC)c(OCCOC)cc23)c1 [erlotinib] (first compound 0.4 µM, partner dose 0.8 µM) | 110
C[C@@H](N)c1ccc(C(=O)Nc2ccnc3[nH]ccc23)cc1 + Cn1sc(=O)n(Cc2ccccc2)c1=O [TDZD-8] (first compound 0.4 µM, partner dose 0.4 µM) | 135
CS(=O)(=O)c1ccc(C(=O)Nc2ccc(Cl)c(-c3ccccn3)c2)c(Cl)c1 [vismodegib] + CCCCCCCCc1ccc(CCC(N)(CO)CO)cc1 [fingolimod] (first compound 1 µM, partner dose 2 µM) | 81.3
Cn1cnc2c(F)c(Nc3ccc(Br)cc3Cl)c(C(=O)NOCCO)cc21 [selumetinib] + C#Cc1cccc(Nc2ncnc3cc(OCCOC)c(OCCOC)cc23)c1 [erlotinib] (first compound 0.015 µM, partner dose 0.8 µM) | 197
CC1(C)CCC(c2ccc(Cl)cc2)=C(CN2CCN(c3ccc(C(=O)NS(=O)(=O)c4ccc(N[C@H](CCN5CCOCC5)CSc5ccccc5)c(S(=O)(=O)C(F)(F)F)c4)cc3)CC2)C1 + CS(=O)(=O)CCNCc1ccc(-c2ccc3ncnc(Nc4ccc(OCc5cccc(F)c5)c(Cl)c4)c3c2)o1 [lapatinib] (first compound 0.4 µM, partner dose 0.8 µM) | 416
CC1(C)CCC(c2ccc(Cl)cc2)=C(CN2CCN(c3ccc(C(=O)NS(=O)(=O)c4ccc(N[C@H](CCN5CCOCC5)CSc5ccccc5)c(S(=O)(=O)C(F)(F)F)c4)cc3)CC2)C1 + O=C(O)[C@@H]1[O][Sb](=[O])([O][Sb]2(=[O])[O][C@H]([C@H](O)CO)[C@H](O)[C@H](C(=O)O)[O]2)[O][C@H]([C@H](O)CO)[C@@H]1O [stibogluconate] (first compound 0.4 µM, partner dose 2 µM) | 314
CC1(C)CCC(c2ccc(Cl)cc2)=C(CN2CCN(c3ccc(C(=O)NS(=O)(=O)c4ccc(N[C@H](CCN5CCOCC5)CSc5ccccc5)c(S(=O)(=O)C(F)(F)F)c4)cc3)CC2)C1 + Nc1ccn([C@@H]2O[C@H](CO)[C@@H](O)C2(F)F)c(=O)n1 [gemcitabine] (first compound 0.4 µM, partner dose 0.0004 µM) | 274
C[C@]1(O)C[C@@H](c2nc(-c3ccc4ccc(-c5ccccc5)nc4c3)c3c(N)nccn32)C1 + CC(=O)O[C@@]12CO[C@@H]1C[C@H](O)[C@@]1(C)C(=O)[C@H](O)C3=C(C)[C@@H](OC(=O)[C@H](O)[C@@H](NC(=O)OC(C)(C)C)c4ccccc4)C[C@@](O)([C@@H](OC(=O)c4ccccc4)[C@H]21)C3(C)C [Docetaxel] (first compound 0.4 µM, partner dose 0.0001 µM) | 204
CC1(C)CCC(c2ccc(Cl)cc2)=C(CN2CCN(c3ccc(C(=O)NS(=O)(=O)c4ccc(N[C@H](CCN5CCOCC5)CSc5ccccc5)c(S(=O)(=O)C(F)(F)F)c4)cc3)CC2)C1 + Cn1sc(=O)n(Cc2ccccc2)c1=O [TDZD-8] (first compound 0.4 µM, partner dose 0.4 µM) | 401
C[C@]1(O)C[C@@H](c2nc(-c3ccc4ccc(-c5ccccc5)nc4c3)c3c(N)nccn32)C1 + OCc1c[nH]c2ccccc12 [Indole-3-carbinol] (first compound 0.4 µM, partner dose 0.8 µM) | 43.9
CN(c1ncccc1CNc1nc(Nc2ccc3c(c2)CC(=O)N3)ncc1C(F)(F)F)S(C)(=O)=O + C[C@]1(c2nc3c(C(N)=O)cccc3[nH]2)CCCN1 [Veliparib] (first compound 0.08 µM, partner dose 1.4 µM) | 158
C[C@]1(O)C[C@@H](c2nc(-c3ccc4ccc(-c5ccccc5)nc4c3)c3c(N)nccn32)C1 + CCCS(=O)(=O)Nc1ccc(F)c(C(=O)c2c[nH]c3ncc(Cl)cc23)c1F [PLX4720] (first compound 0.4 µM, partner dose 0.08 µM) | 104
CN(c1ncccc1CNc1nc(Nc2ccc3c(c2)CC(=O)N3)ncc1C(F)(F)F)S(C)(=O)=O + Cn1c(=O)n(-c2ccc(C(C)(C)C#N)cc2)c2c3cc(-c4cnc5ccccc5c4)ccc3ncc21 [NVP-BEZ235] (first compound 0.08 µM, partner dose 0.004 µM) | 91.8
NC(=O)c1ccc(N(C(N)=O)c2c(F)cccc2F)nc1-c1ccc(F)cc1F + CC(=O)c1c(C)c2cnc(Nc3ccc(N4CCNCC4)cn3)nc2n(C2CCCC2)c1=O [palbociclib] (first compound 0.4 µM, partner dose 0.04 µM) | 70.6
CN(c1ncccc1CNc1nc(Nc2ccc3c(c2)CC(=O)N3)ncc1C(F)(F)F)S(C)(=O)=O + CCCS(=O)(=O)Nc1ccc(F)c(C(=O)c2c[nH]c3ncc(Cl)cc23)c1F [PLX4720] (first compound 0.08 µM, partner dose 0.08 µM) | 55.8
CCCCCCCCc1ccc(CCC(N)(CO)CO)cc1 [fingolimod] + Nc1nc(F)nc2c1ncn2[C@@H]1O[C@H](CO)[C@@H](O)[C@@H]1O [fludarabine] (first compound 2 µM, partner dose 0.2 µM) | 79.7
CCCCCCCCc1ccc(CCC(N)(CO)CO)cc1 [fingolimod] + CC(=O)c1c(C)c2cnc(Nc3ccc(N4CCNCC4)cn3)nc2n(C2CCCC2)c1=O [palbociclib] (first compound 2 µM, partner dose 0.04 µM) | 121
CC(=O)O[C@@]12CO[C@@H]1C[C@H](O)[C@@]1(C)C(=O)[C@H](O)C3=C(C)[C@@H](OC(=O)[C@H](O)[C@@H](NC(=O)OC(C)(C)C)c4ccccc4)C[C@@](O)([C@@H](OC(=O)c4ccccc4)[C@H]21)C3(C)C [Docetaxel] + Cc1cc(Nc2cc(N3CCN(C)CC3)nc(/C=C/c3ccccc3)n2)n[nH]1 [ENMD2076] (first compound 0.0001 µM, partner dose 0.04 µM) | 423
CC1(C)CCC(c2ccc(Cl)cc2)=C(CN2CCN(c3ccc(C(=O)NS(=O)(=O)c4ccc(N[C@H](CCN5CCOCC5)CSc5ccccc5)c(S(=O)(=O)C(F)(F)F)c4)cc3)CC2)C1 + CCCS(=O)(=O)Nc1ccc(F)c(C(=O)c2c[nH]c3ncc(Cl)cc23)c1F [PLX4720] (first compound 0.4 µM, partner dose 0.08 µM) | 191
CC(=O)O[C@@]12CO[C@@H]1C[C@H](O)[C@@]1(C)C(=O)[C@H](O)C3=C(C)[C@@H](OC(=O)[C@H](O)[C@@H](NC(=O)OC(C)(C)C)c4ccccc4)C[C@@](O)([C@@H](OC(=O)c4ccccc4)[C@H]21)C3(C)C [Docetaxel] + Cn1c(Nc2ccc(C(F)(F)F)cc2)nc2cc(Oc3ccnc(-c4ncc(C(F)(F)F)[nH]4)c3)ccc21 [CHIR265] (first compound 0.0001 µM, partner dose 0.08 µM) | 699
Cn1sc(=O)n(Cc2ccccc2)c1=O + CC(C)C[C@H](NC(=O)[C@H](Cc1ccccc1)NC(=O)c1cnccn1)B(O)O [Bortezomib] (first compound 0.4 µM, partner dose 0.001 µM) | 65.4
COc1ccc(C2=N[C@@H](c3ccc(Cl)cc3)[C@@H](c3ccc(Cl)cc3)N2C(=O)N2CCNC(=O)C2)c(OC(C)C)c1 [Nutlin-3] + C=CCNC1=C2C[C@@H](C)C[C@H](OC)[C@H](O)[C@@H](C)/C=C(\C)[C@H](OC(N)=O)[C@@H](OC)/C=C\C=C(/C)C(=O)NC(=CC1=O)C2=O [Tanespimycin] (first compound 0.1 µM, partner dose 0.002 µM) | 112

Part of the list above in another layout.
CC1(C)CCC(c2ccc(Cl)cc2)=C(CN2CCN(c3ccc(C(=O)NS(=O)(=O)c4ccc(N[C@H](CCN5CCOCC5)CSc5ccccc5)c(S(=O)(=O)C(F)(F)F)c4)cc3)CC2)C1 + CS(=O)(=O)CCNCc1ccc(-c2ccc3ncnc(Nc4ccc(OCc5cccc(F)c5)c(Cl)c4)c3c2)o1 [lapatinib] (first compound 0.4 µM, partner dose 0.8 µM)
  cleaved PARP positive nuclei fraction [%]: 416
CC(=O)O[C@@]12CO[C@@H]1C[C@H](O)[C@@]1(C)C(=O)[C@H](O)C3=C(C)[C@@H](OC(=O)[C@H](O)[C@@H](NC(=O)OC(C)(C)C)c4ccccc4)C[C@@](O)([C@@H](OC(=O)c4ccccc4)[C@H]21)C3(C)C [Docetaxel] + Cc1cc(Nc2cc(N3CCN(C)CC3)nc(/C=C/c3ccccc3)n2)n[nH]1 [ENMD2076] (first compound 0.0001 µM, partner dose 0.04 µM)
  cleaved PARP positive nuclei fraction [%]: 423
